Measured values published in article PMC8305043.
Results are given in words; binding and its absence hold for the method and conditions named. In cells and extracts the contact can be indirect. Some entries that bind do so weakly or less than the wild type.

By UniProt entry, the sequences of proteins in these tests, tags left out. Residues count along the entry.
UniProt Q07954, residues 20-4544: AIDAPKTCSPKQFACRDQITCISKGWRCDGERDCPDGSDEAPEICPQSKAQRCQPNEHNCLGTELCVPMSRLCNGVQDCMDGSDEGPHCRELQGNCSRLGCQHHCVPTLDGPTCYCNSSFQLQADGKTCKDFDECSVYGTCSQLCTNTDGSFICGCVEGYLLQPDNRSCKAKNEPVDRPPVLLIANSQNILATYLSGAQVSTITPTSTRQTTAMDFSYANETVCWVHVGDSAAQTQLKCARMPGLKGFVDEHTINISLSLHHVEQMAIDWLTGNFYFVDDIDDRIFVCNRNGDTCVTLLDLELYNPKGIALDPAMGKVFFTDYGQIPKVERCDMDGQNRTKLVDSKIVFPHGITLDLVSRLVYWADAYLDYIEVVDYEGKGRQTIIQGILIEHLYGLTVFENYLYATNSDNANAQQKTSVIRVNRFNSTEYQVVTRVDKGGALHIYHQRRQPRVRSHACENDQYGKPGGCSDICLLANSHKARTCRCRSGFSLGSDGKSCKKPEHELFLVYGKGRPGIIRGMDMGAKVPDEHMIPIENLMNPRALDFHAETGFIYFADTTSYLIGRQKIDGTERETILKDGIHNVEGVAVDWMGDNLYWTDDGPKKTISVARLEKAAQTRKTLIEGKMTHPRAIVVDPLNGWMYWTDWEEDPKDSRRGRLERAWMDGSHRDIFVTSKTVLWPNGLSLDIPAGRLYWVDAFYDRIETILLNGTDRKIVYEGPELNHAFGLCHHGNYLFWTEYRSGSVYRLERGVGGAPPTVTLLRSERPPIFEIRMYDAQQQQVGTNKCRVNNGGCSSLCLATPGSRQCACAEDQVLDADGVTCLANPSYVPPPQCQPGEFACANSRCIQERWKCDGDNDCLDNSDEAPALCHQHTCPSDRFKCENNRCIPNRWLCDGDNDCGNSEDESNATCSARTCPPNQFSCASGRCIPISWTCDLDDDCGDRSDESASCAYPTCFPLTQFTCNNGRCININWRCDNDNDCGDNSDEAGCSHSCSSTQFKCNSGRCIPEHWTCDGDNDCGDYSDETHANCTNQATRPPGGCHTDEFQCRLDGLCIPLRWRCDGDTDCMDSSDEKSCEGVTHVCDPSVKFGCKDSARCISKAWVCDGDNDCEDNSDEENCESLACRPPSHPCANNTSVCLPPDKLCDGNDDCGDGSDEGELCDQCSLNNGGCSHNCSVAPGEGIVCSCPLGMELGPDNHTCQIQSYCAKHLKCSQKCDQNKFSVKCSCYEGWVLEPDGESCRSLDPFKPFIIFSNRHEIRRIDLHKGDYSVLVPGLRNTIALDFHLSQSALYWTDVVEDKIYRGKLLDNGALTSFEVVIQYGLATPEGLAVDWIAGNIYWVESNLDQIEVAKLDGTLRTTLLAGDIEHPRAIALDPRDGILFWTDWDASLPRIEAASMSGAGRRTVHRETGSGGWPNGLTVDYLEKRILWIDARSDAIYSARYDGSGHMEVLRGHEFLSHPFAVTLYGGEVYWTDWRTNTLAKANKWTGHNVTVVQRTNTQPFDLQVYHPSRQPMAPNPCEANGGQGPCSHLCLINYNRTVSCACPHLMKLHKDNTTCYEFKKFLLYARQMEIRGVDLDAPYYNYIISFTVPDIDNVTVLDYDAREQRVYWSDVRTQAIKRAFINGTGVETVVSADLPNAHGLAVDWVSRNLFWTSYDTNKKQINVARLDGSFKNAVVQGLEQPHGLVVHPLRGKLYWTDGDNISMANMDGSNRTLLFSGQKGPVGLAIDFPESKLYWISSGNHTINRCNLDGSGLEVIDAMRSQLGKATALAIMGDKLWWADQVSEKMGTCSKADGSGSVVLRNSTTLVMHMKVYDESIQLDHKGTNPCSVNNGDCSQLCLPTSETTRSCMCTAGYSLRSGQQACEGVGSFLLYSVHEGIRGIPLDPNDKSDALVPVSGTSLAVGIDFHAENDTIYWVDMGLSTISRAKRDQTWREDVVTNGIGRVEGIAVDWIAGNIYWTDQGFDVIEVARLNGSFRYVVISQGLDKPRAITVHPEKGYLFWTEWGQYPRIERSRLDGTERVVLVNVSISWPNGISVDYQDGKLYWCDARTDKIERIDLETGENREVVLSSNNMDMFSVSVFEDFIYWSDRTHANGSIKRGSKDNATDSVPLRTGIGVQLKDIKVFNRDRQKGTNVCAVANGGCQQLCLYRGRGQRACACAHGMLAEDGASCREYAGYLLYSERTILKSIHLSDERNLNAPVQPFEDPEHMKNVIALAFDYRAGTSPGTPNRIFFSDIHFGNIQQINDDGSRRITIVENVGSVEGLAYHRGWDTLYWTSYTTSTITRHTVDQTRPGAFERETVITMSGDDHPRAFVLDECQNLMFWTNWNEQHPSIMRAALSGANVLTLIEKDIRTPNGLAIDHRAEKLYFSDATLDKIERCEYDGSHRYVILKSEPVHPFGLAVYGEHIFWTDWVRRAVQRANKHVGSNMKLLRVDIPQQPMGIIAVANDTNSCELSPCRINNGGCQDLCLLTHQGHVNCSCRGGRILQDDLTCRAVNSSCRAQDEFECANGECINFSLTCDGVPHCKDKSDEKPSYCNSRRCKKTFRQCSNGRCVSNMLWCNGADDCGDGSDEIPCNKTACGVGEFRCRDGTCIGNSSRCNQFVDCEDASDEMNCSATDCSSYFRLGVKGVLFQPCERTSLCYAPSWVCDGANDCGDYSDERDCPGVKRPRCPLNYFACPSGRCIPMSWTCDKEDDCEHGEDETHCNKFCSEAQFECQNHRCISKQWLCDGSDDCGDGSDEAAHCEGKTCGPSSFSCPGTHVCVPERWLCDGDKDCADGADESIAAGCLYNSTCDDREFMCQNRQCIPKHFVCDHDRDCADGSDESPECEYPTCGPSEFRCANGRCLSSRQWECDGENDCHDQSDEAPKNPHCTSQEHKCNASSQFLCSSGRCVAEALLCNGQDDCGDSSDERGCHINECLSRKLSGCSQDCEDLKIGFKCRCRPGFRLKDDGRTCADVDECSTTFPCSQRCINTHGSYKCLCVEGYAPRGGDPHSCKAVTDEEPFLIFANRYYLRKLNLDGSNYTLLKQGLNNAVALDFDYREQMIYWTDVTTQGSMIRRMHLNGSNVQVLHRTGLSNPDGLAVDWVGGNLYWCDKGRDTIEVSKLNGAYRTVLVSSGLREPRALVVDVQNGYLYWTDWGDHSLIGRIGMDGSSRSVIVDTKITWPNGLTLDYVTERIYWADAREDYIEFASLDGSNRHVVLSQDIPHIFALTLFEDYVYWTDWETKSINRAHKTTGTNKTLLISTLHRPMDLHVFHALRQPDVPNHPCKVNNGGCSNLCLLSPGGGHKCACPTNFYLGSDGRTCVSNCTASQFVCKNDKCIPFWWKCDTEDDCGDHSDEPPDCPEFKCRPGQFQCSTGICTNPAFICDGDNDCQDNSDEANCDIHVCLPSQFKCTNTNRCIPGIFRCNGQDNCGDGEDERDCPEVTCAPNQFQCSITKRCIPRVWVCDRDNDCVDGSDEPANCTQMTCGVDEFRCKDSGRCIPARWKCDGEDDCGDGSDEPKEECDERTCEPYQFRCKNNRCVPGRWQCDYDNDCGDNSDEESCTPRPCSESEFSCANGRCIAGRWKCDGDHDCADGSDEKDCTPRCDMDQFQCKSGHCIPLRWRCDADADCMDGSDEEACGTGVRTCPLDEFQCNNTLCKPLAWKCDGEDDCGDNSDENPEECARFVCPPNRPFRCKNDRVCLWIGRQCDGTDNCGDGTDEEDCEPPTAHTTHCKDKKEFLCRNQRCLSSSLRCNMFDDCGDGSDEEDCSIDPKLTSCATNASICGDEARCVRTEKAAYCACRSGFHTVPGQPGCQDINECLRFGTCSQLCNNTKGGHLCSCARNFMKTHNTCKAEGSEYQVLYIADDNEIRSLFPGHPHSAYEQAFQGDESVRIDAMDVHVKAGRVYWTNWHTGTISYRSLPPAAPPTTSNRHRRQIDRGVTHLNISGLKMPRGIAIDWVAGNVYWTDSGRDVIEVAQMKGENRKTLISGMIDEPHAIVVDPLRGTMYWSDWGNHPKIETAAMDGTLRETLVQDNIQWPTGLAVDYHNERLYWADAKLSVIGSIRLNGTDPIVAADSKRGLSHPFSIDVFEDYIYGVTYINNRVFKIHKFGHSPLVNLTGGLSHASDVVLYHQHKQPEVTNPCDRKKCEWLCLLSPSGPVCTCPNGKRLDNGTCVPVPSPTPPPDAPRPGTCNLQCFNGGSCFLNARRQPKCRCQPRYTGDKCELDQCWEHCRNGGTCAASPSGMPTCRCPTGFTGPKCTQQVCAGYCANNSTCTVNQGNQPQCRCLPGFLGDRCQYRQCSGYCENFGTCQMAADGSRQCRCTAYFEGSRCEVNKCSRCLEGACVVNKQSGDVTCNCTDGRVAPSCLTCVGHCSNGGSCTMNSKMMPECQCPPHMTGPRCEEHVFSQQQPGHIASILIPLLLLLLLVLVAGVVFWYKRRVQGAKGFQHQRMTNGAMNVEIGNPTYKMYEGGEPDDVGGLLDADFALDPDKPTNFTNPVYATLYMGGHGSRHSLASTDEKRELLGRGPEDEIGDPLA

Molecular target: Low-density lipoprotein receptor-related protein 1 (human (endogenous in hLECs)) (UniProt Q07954)
Experiment: co-IP; living hLECs treated with His-tagged recombinant human Hsp90α (200 ng/mL) for 15 min, washed with PBS; interactions stabilised with 3 mg/mL DTBP cross-linker for 2 h at 4 °C; lysis in 20 mM Tris, 150 mM NaCl, 1% Triton X-100; supernatant incubated with indicated antibodies overnight at 4 °C; protein A-sepharose beads; Western blotting; only the binder purified

Question: For “Recombinant human Hsp90α protein (with 6 × His Tag) (from UniProt P07900 1-732)”, which binding is on record?
Answer: binds
